Data as given in PubChem BioAssay AID743121 (NCATS, 2013)

Purpose: 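Partners whose loss is lethal together with topoisomerase I blockade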 (primary screen)
System: MDA-MB-231 cells, a human breast cancer line
Reagent: single siRNA against human genes, 20 nM siRNA (0.8 pmol per well)
Duration: 120 h (drug added 48 h after transfection, read 72 h later)
Challenge: camptothecin 20 nM (about EC30) for 72 h; vehicle 0.1% DMSO in parallel plates
Detection: 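CellTiter-Glo ATP signal, scaled to control siRNA as percent viability; sensitisation given as log2 of untreated divided by camptothecin-treated viability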
Reading the numbers: log2 vehicle/camptothecin viability: higher = stronger sensitisation to camptothecin
Active means: 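Active genes have an RSA gene-level p-value below 0.001, computed from the ratios of their separate siRNAs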
Here is a random part of about 26,000 deposited reagents. 167 of them (0.63%) were called active. 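Calls are per gene from RSA p-values that are not deposited; an individual active-marked siRNA can sensitise only weakly.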 Unmarked entries are inactive. The numbers tell different reagents against one gene apart. Further read-outs or replicates are left out here.

log2 vehicle/camptothecin viability, by gene and reagent
RAPGEF1 (Rap guanine nucleotide exchange factor 1): #1 -0.507; #2 -0.681; #3 -0.389; #4 -0.121
WFS1 (wolframin ER transmembrane glycoprotein): #1 -0.244; #2 -0.106; #3 -0.449; #4 0.543
AHCY (adenosylhomocysteinase): #1 0.11; #2 -0.0929; #3 0.117; #4 0.593
PDP1 (pyruvate dehydrogenase phosphatase catalytic subunit 1): #1 -0.177; #2 0.16; #3 -0.112; #4 0.0888
NPRL2 (NPR2 like, GATOR1 complex subunit): #1 0.311; #2 -0.491; #3 -0.531; #4 0.108
GANAB (glucosidase II alpha subunit): #1 -0.233; #2 0.476; #3 -0.319; #4 -0.177
BEX3 (brain expressed X-linked 3): #1 -0.171; #2 0.251; #3 -0.247; #4 0.0947
RARA (retinoic acid receptor alpha): #1 -0.15; #2 -0.222; #3 -0.133; #4 -0.148
RBL2 (RB transcriptional corepressor like 2): #1 0.0931; #2 0.0138; #3 -0.0985; #4 0.317
FGF10 (fibroblast growth factor 10): #1 -0.444; #2 0.0879; #3 -0.627
TUBB (tubulin beta class I): #1 0.0644; #2 0.54; #3 -0.665
CYP4Z1 (cytochrome P450 family 4 subfamily Z member 1): #1 0.0604; #2 0.206; #3 -0.115
MAPK8IP2 (mitogen-activated protein kinase 8 interacting protein 2): #1 0.0909; #2 -0.65; #3 0.361; #4 -0.43
MPL (MPL proto-oncogene, thrombopoietin receptor): #1 -0.302; #2 0.161; #3 -0.143; #4 -0.0709
GTF2H3 (general transcription factor IIH subunit 3): #1 -0.368; #2 -0.229; #3 0.0498

Reformatted: 4 of the entries above.
{"gene": "MAPK8IP2 (mitogen-activated protein kinase 8 interacting protein 2)", "reagent": 1, "log2 vehicle/camptothecin viability": 0.0909}
{"gene": "MAPK8IP2 (mitogen-activated protein kinase 8 interacting protein 2)", "reagent": 2, "log2 vehicle/camptothecin viability": -0.65}
{"gene": "MAPK8IP2 (mitogen-activated protein kinase 8 interacting protein 2)", "reagent": 3, "log2 vehicle/camptothecin viability": 0.361}
{"gene": "MAPK8IP2 (mitogen-activated protein kinase 8 interacting protein 2)", "reagent": 4, "log2 vehicle/camptothecin viability": -0.43}

The results go on.
log2 vehicle/camptothecin viability, by gene and reagent
ESRRB (estrogen related receptor beta): #1 -0.224; #2 -0.167; #3 -0.0432
FAM219B (family with sequence similarity 219 member B): #1 0.0236; #2 0.295; #3 0.0592
CALR (calreticulin): #1 -0.169; #2 -0.135; #3 0.553
SCN8A (sodium voltage-gated channel alpha subunit 8): #1 -0.118; #2 -0.509; #3 0.529
EDARADD (EDAR associated via death domain): #1 0.278; #2 -0.147; #3 0.00118
BTN2A2 (butyrophilin subfamily 2 member A2): #1 -0.222; #2 -0.261; #3 -0.369; #4 -0.523
DTL (denticleless E3 ubiquitin protein ligase adapter): #1 0.301; #2 0.801; #3 1.26; #4 -0.549
TP63 (tumor protein p63): #1 -0.134; #2 -0.0943; #3 -0.356; #4 -0.298
PKLR (pyruvate kinase L/R): #1 0.367; #2 0.116; #3 0.406; #4 -0.102
